According to patent US11512279B2, “Technology to generate and utilize customized microorganism-growth assay keys” (priority 2018, dated 2022):
At least one structure is not confirmed: it was looked up by name or label, or the drawing left a doubt.

Experiments:
Test in all cases: Plate assay on Sabouraud dextrose agar containing cetylpyridinium chloride
Format in all cases: cell-based
[1] = test system: Candida haemulonii; conditions: 48 hours of incubation at 38.5° C.
[2] = test system: Candida albicans
[3] = test system: Candida famata; conditions: 48 hours of incubation at 30° C.

SMILES: CCCCCCCCCCCCCCCC[n+]1ccccc1 [cetylpyridinium chloride]
- sensitivity to cetylpyridinium chloride relative to C. auris [1]: increased sensitivity
- colony growth as the amount of cetylpyridinium chloride in the medium increases ([2]; 48 hours of incubation at 30° C.): suppressed
- sensitivity to cetylpyridinium chloride relative to C. auris ([2]; 48 hours of incubation at 38.5° C.): the opposite
- colony growth as the amount of cetylpyridinium chloride in the medium increases [3]: suppressed
